Some of the results follow.
Columns and labels:
Assay in all cases: glycan array binding signal (z-score within array); higher = stronger binding
Settings in all cases: glycan notation: IUPAC condensed, linker removed; mutation: Q318A
[1] = molecular target: Gal(b1-4)GlcNAc(b1-2)Man(a1-3)[Gal(b1-4)GlcNAc(b1-2)Man(a1-6)]Man(b1-4)GlcNAc(b1-4)GlcNAc
In short: (§1)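 The Consortium for Functional Glycomics database supplied 3228 glycan arrays, of which those lacking an available protein sequence were dropped. The binding signal, a within-array Z-score, was averaged across arrays of the same protein sequence and across linkers. Negative scores can be read as non-binding.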

[2] = molecular target: Gal(b1-4)GlcNAc(b1-2)Man(a1-3)[Gal(b1-4)GlcNAc(b1-2)Man(a1-6)]Man(b1-4)GlcNAc(b1-4)[Fuc(a1-6)]GlcNAc
In short: as §1

[3] = molecular target: Gal(b1-4)GlcNAc(b1-2)Man(a1-3)[Gal(b1-4)GlcNAc(b1-2)Man(a1-6)][Gal(b1-4)GlcNAc(b1-4)]Man(b1-4)GlcNAc(b1-4)[Fuc(a1-6)]GlcNAc
In short: as §1

[4] = molecular target: Gal(b1-4)GlcNAc(b1-2)Man(a1-3)[Gal(b1-4)GlcNAc(b1-2)Man(a1-6)][GlcNAc(b1-4)]Man(b1-4)GlcNAc(b1-4)[Fuc(a1-6)]GlcNAc
In short: as §1

[5] = molecular target: Gal(b1-4)GlcNAc(b1-2)Man(a1-3)[GlcNAc(b1-2)Man(a1-6)]Man(b1-4)GlcNAc(b1-4)GlcNAc
In short: as §1

[6] = molecular target: Gal(b1-4)GlcNAc(b1-2)Man(a1-3)[GlcNAc(b1-4)][Gal(b1-4)GlcNAc(b1-2)Man(a1-6)]Man(b1-4)GlcNAc(b1-4)GlcNAc
In short: as §1

[7] = molecular target: Gal(b1-4)GlcNAc(b1-2)Man(a1-3)[Man(a1-6)]Man(b1-4)GlcNAc(b1-4)GlcNAc
In short: as §1

[8] = molecular target: Gal(b1-4)GlcNAc(b1-2)Man(a1-6)Man(b1-4)GlcNAc(b1-4)GlcNAc
In short: as §1

[9] = molecular target: Gal(b1-4)GlcNAc(b1-2)Man(a1-6)[GlcNAc(b1-2)Man(a1-3)]Man(b1-4)GlcNAc(b1-4)GlcNAc
In short: as §1

[10] = molecular target: Gal(b1-4)GlcNAc(b1-2)Man(a1-6)[Man(a1-3)]Man(b1-4)GlcNAc(b1-4)GlcNAc
In short: as §1

[11] = molecular target: Gal(b1-4)GlcNAc(b1-2)[Gal(b1-4)GlcNAc(b1-4)]Man(a1-3)[Gal(b1-4)GlcNAc(b1-2)Man(a1-6)]Man(b1-4)GlcNAc(b1-4)GlcNAc
In short: as §1

[12] = molecular target: Gal(b1-4)GlcNAc(b1-2)[Gal(b1-4)GlcNAc(b1-4)]Man(a1-3)[Gal(b1-4)GlcNAc(b1-2)[Gal(b1-4)GlcNAc(b1-6)]Man(a1-6)]Man(b1-4)GlcNAc(b1-4)GlcNAc
In short: as §1

[13] = molecular target: Gal(b1-4)GlcNAc(b1-2)[Gal(b1-4)GlcNAc(b1-4)]Man(a1-3)[GlcNAc(b1-4)][Gal(b1-4)GlcNAc(b1-2)Man(a1-6)]Man(b1-4)GlcNAc(b1-4)GlcNAc
In short: as §1

[14] = molecular target: Gal(b1-4)GlcNAc(b1-2)[Gal(b1-4)GlcNAc(b1-4)]Man(a1-3)[GlcNAc(b1-4)][Gal(b1-4)GlcNAc(b1-2)[Gal(b1-4)GlcNAc(b1-6)]Man(a1-6)]Man(b1-4)GlcNAc(b1-4)GlcNAc
In short: as §1

[15] = molecular target: Gal(b1-4)GlcNAc(b1-2)[Gal(b1-4)GlcNAc(b1-6)]Man(a1-6)[Gal(b1-4)GlcNAc(b1-2)Man(a1-3)]Man(b1-4)GlcNAc(b1-4)GlcNAc
In short: as §1

[16] = molecular target: Gal(b1-4)GlcNAc(b1-2)[Gal(b1-4)GlcNAc(b1-6)]Man(a1-6)[Gal(b1-4)GlcNAc(b1-2)Man(a1-3)]Man(b1-4)GlcNAc(b1-4)[Fuc(a1-6)]GlcNAc
In short: as §1

[17] = molecular target: Gal(b1-4)GlcNAc(b1-2)[Gal(b1-4)GlcNAc(b1-6)]Man(a1-6)[GlcNAc(b1-4)][Gal(b1-4)GlcNAc(b1-2)Man(a1-3)]Man(b1-4)GlcNAc(b1-4)GlcNAc
In short: as §1

[18] = molecular target: Gal(b1-4)GlcNAc(b1-2)[Gal(b1-4)GlcNAc(b1-6)]Man(a1-6)[GlcNAc(b1-4)][Gal(b1-4)GlcNAc(b1-2)[Gal(b1-4)GlcNAc(b1-4)]Man(a1-3)]Man(b1-4)GlcNAc(b1-4)[Fuc(a1-6)]GlcNAc
In short: as §1

[19] = molecular target: Gal(b1-4)GlcNAc(b1-3)Gal(b1-3)GalNAc
In short: as §1

B1: SUN4 (Saccharomyces cerevisiae), P53616 (protein)
chain: MGSSHHHHHHSSGLVPRGSHNGSIYGDLADFSGPYEKFEDGTIPCGQFPSGQGVIPISWLDEGGWSGVENTDTSTGGSCKEGSYCSYACQPGMSKTQWPSDQPSDGRSIGGLLCKDGYLYRSNTDTDYLCEWGVDAAYVVSELSNDVAICRTDYPGTENMVIPTYVQAGDSLPLTVVDQDTYYTWQGLKTSAAYYVNNAGISVEDACVWGSSSSGVGNWAPLNFGAGSSDGVAYLSLIPNPNNGNALNFNVKIVAADDSSTVNGECIYENGSFSGGSDGCTVSVTAGKAKFVLYN
glycan array binding signal (z-score) [1]: -0.273 | glycan array binding signal (z-score) [2]: 0.438 | glycan array binding signal (z-score) [3]: -0.336 | glycan array binding signal (z-score) [4]: -0.281 | glycan array binding signal (z-score) [5]: -0.375 | glycan array binding signal (z-score) [6]: -0.624 | glycan array binding signal (z-score) [7]: 1.47 | glycan array binding signal (z-score) [8]: -0.627 | glycan array binding signal (z-score) [9]: -1 | glycan array binding signal (z-score) [10]: 1.2 | glycan array binding signal (z-score) [11]: -0.386 | glycan array binding signal (z-score) [12]: -0.928 | glycan array binding signal (z-score) [13]: -0.489 | glycan array binding signal (z-score) [14]: -0.441 | glycan array binding signal (z-score) [15]: -0.011 | glycan array binding signal (z-score) [16]: 0.896 | glycan array binding signal (z-score) [17]: -0.239 | glycan array binding signal (z-score) [18]: 0.832 | glycan array binding signal (z-score) [19]: -0.72

From the supplement of paper PMC8728848
